Assay results published in US20060258003A1, “Culture medium composition, culture method, and myoblasts obtained, and their uses” (CELOGOS, priority 2002, published 2006).
At least one structure is not confirmed: it was looked up by name or label, or the drawing left a doubt.

Test system: rat muscle fibre precursor cells, passage 23
Experiment: Specific effect of glucocorticoids on growth of muscle fibre precursor cells
Conditions: added to DME/F12 + 20% FCS + insulin + FGF; 5 days; steroid hormones at 10^−7 M

Compound | effect on cell proliferation / growth
C[C@@H]1C[C@H]2[C@@H]3CCC4=CC(=O)C=C[C@]4(C)[C@@]3(F)[C@@H](O)C[C@]2(C)[C@@]1(O)C(=O)CO [dexamethasone] | very clearly improves cell proliferation
CC#C[C@]1(O)CC[C@H]2[C@@H]3CCC4=CC(=O)CCC4=C3[C@@H](c3ccc(N(C)C)cc3)C[C@@]21C [RU486] | eliminates the effect of the glucocorticoids
